Laboratory results as given in the supplement of paper PMC6078165.
Values are relative to the signal before dosing, not to a vehicle control; the signal also falls without drug.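 Fibroblast labels name human fibroblasts: mostly primary ones from tissues such as uterus (C12385, HUF), lung (H6013), bone (Hs27A), adrenal (HADF) and skin (WS1), plus mammary HMF and breast cancer-associated Hs343T. The cancer cells are basal-like or mesenchymal-like triple-negative breast cancer lines. The paper calls a changed response a hit when it shifts by more than 3x the replicate standard deviation. The tissue of the other fibroblasts is not given here.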

Test system: BT20
Experiment: relative JC-1 red fluorescence (viability) vs pre-drug, coculture with fibroblast (fraction); higher = more viable cancer cells
Description: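 JC-1 labelled TNBC cells cocultured 1:1 (1,500 cells each) with CellTrace Violet stained primary or stromal fibroblasts in 384-well plates in FluoroBrite medium, treated with one of 42 anticancer drugs at 0.1, 1, 10 or 100 uM. JC-1 red fluorescence (mitochondrial integrity in cancer cells only) was read by plate reader every 8 h for 72 h. Values are normalised to each well's pre-drug value. The stock of one drug was tenfold lower, so its dose labels may be too high.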

CCC1=C[C@@H]2CN(C1)Cc1c([nH]c3ccccc13)[C@@](C(=O)OC)(c1cc3c(cc1OC)N(C)[C@H]1[C@@](O)(C(=O)OC)[C@H](OC(C)=O)[C@]4(CC)C=CCN5CC[C@]31[C@@H]54)C2 [Vinorelbine]
relative JC-1 red fluorescence
Conditions	8 h	16 h	24 h	32 h	40 h	48 h	56 h	64 h	72 h
0.1 µM, coculture fibroblast: C12385	0.933	0.799	0.786	0.724	0.672	0.639	0.616	0.602	0.604
0.1 µM, coculture fibroblast: H6013	0.966	0.889	0.872	0.83	0.801	0.795	0.793	0.785	0.773
0.1 µM, coculture fibroblast: H6019	0.891	0.82	0.821	0.777	0.741	0.732	0.714	0.712	0.698
0.1 µM, coculture fibroblast: H6076	0.9901	0.9226	0.846	0.825	0.7842	0.75	0.749	0.755	0.748
0.1 µM, coculture fibroblast: H6231	0.788	0.9759	0.866	0.786	0.735	0.667	0.613	0.563	0.536
0.1 µM, coculture fibroblast: HADF	0.854	0.869	0.8035	0.76254	0.708	0.6764	0.65	0.6402	0.6188
0.1 µM, coculture fibroblast: HCFa	0.939	0.849	0.813	0.745	0.699	0.664	0.639	0.609	0.56
0.1 µM, coculture fibroblast: HCPF	0.738	0.927	0.8392	0.779	0.719	0.68179	0.623	0.614	0.586
0.1 µM, coculture fibroblast: HHSteC	0.961	0.906	0.8843	0.861	0.822	0.801	0.782	0.754	0.725
0.1 µM, coculture fibroblast: HMF	0.964	0.835	0.752	0.709	0.648	0.589	0.552	0.535	0.522
0.1 µM, coculture fibroblast: HPFa	0.955	0.91	0.898	0.795	0.7802	0.718	0.699	0.667	0.637
0.1 µM, coculture fibroblast: HUF	0.9434	0.827	0.747	0.653	0.593	0.526	0.486	0.459	0.439
0.1 µM, coculture fibroblast: Hs5	0.9779	0.883	0.804	0.742	0.696	0.662	0.633	0.6	0.573
0.1 µM, coculture fibroblast: Hs27A	0.718	0.765	0.981	0.9483	0.922	0.923	0.921	0.908	0.88
0.1 µM, coculture fibroblast: Hs343T	0.952	0.887	0.772	0.701	0.632	0.574	0.529	0.511	0.489
0.1 µM, coculture fibroblast: WS1	0.902	0.76555	0.723	0.6533	0.5904	0.57	0.54	0.528	0.524
1 µM, coculture fibroblast: C12385	0.933	0.865	0.841	0.784	0.72	0.675	0.619	0.582	0.552
1 µM, coculture fibroblast: H6013	0.942	0.896	0.92	0.871	0.839	0.815	0.822	0.813	0.794
1 µM, coculture fibroblast: H6019	0.884	0.859	0.88	0.832	0.793	0.777	0.742	0.736	0.731
1 µM, coculture fibroblast: H6076	0.982	0.9069	0.8376	0.807	0.773	0.734	0.706	0.687	0.659
1 µM, coculture fibroblast: H6231	0.8851	0.954	0.823	0.7429	0.66	0.606	0.533	0.503	0.465
1 µM, coculture fibroblast: HADF	0.873	0.899	0.853	0.81	0.769	0.719	0.669	0.644	0.601
1 µM, coculture fibroblast: HCFa	0.922	0.875	0.843	0.774	0.726	0.667	0.623	0.591	0.541
1 µM, coculture fibroblast: HCPF	0.809	0.911	0.845	0.784	0.731	0.6632	0.619	0.599	0.544
1 µM, coculture fibroblast: HHSteC	0.898	0.8696	0.859	0.7727	0.7244	0.6846	0.66069	0.639	0.613
1 µM, coculture fibroblast: HMF	0.934	0.884	0.839	0.781	0.72	0.652	0.616	0.58	0.552
1 µM, coculture fibroblast: HPFa	0.926	0.844	0.848	0.753	0.711	0.665	0.648	0.632	0.594
1 µM, coculture fibroblast: HUF	0.937	0.8708	0.826	0.747	0.685	0.634	0.602	0.573	0.551
1 µM, coculture fibroblast: Hs5	0.956	0.902	0.855	0.791	0.768	0.712	0.684	0.663	0.636
1 µM, coculture fibroblast: Hs27A	0.849	0.918	0.922	0.884	0.853	0.823	0.802	0.782	0.748
1 µM, coculture fibroblast: Hs343T	0.876	0.886	0.818	0.7556	0.71	0.649	0.608	0.584	0.549
1 µM, coculture fibroblast: WS1	0.852	0.776	0.746	0.681	0.62	0.595	0.575	0.556	0.552
